According to patent US20060058263A1, “Heat pasturized liquids containing glucosamine” (priority 2002, published 2006):

Assay: Difference From Control sensory panel, Libby's White Grape Juicy Juice with GLCN heated to simulate pasteurization
Settings: 0.75 g GLCN/serving, 195° F. for 42 seconds, average of 12 panelists, scale −5 to +5 vs control
Source text: Libby's White Grape Juicy Juice® was used as the basis for incorporation of samples. White Grape was chosen due to its light color, to help panelists observe any color change. According to the manufacturer, a 64 ounce bottle contains 8 servings of 8 ounces each.
For servings that included GLCN, the serving (8 ounces) had 0.75 g GLCN added, which reflects a typical amount of GLCN delivered in dietary supplement products. 16-ounce portions of juice were used. To the appropriate batches, 1.5 g of GLCN (16 ounces is two servings, and 2 servings×0.75 g/serving=1.5 g) was added. After preparing the samples, they were heated to 195∓4° F. in a microwave, held at that temperature for 42 seconds to simulate heat pasteurization, then cooled as described in Example 1.
Samples were tested according to the methodology and instructions in Example 1.

SMILES	Color	Mouthfeel/texture	Odor	Taste
Cl.N[C@H]1C(O)O[C@H](CO)[C@@H](O)[C@@H]1O (some centres unmarked) [Fungal GLCN]	−0.2	−0.3	−0.3	−0.6
Cl.N[C@H]1C(O)O[C@H](CO)[C@@H](O)[C@@H]1O (some centres unmarked) [Shellfish GLCN, reference compound]	−0.4	−0.3	−0.1	−1.1
